Reference: patent US20140024132A1, “METHODS AND SYSTEMS USING INTEGRATED METABOLOMICS AND PHARMACOKINETICS FOR MULTI-COMPONENT DRUG EVALUATION” (priority 2010, published 2014)

Assay: Pearson correlation of absorbed, biotransformed plant metabolites and altered endogenous metabolites in urine
Type: in vivo, human
Conditions: FIG. 13

Question: Which “effect of increase in its urine concentration on aminomalonic acid and 2-aminobutyric acid” value does the source give for `O=C(O)Cc1cccc(O)c1` [3-Hydroxyphenylacetic acid] here?
Answer: The value was “elevated level”.
